Most values lie at the floor of the assay. Slopes are relative: functional sequences can read slightly below zero.

In this data set the test system is Saccharomyces cerevisiae PS128 hsf1 delta, HSF1(1-493) fusion. The experiment in a line: growth estimate (transactivation domain function in HSF1 fusion, heat-shock survival) (a.u. (slope of normalised read count over time)); higher = stronger growth at 37°C, i.e. more transactivation activity. The conditions noted are these: library: random library. On the procedure:
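Random 60-nt DNA library encoding peptides of up to 20 aa, fused to the C-terminus of yeast HSF1 residues 1-493 (C-terminal TAD deleted) and expressed from the native HSF1 promoter on a CEN plasmid in hsf1-deleted S. cerevisiae PS128. Cells were selected at 37°C on -trp 5-FOA plates for 0, 2, 4, 6 and 8 days and amplicons were sequenced. Growth estimate is the slope of a robust linear fit of total-sum-normalised read counts (normalised to the first time point) over time, using at least 2 replicates. Sequences are classed functional (TAD activity) above a threshold of -0.13, set from stop-codon control sequences.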
In the case of LIVELRDYMRTWDFHSGWSI, the growth estimate is less than -0.25.

Consider GNHERSVCWGLEEDS, for which the growth estimate was less than -0.25.

As to DQLVTRFMDVAPSTQRIVCG, the growth estimate was less than -0.25. Then KLRIRRPSLILMT, with less than -0.25; and VAGCPISATKHPELTNSLGV, with less than -0.25. Then SNSVHCCAAL, with less than -0.25.

On to VSNGLLFILPCLTRADKRLS, for which the growth estimate is less than -0.25. Regarding SCTPRGCKLHVFDSLHL, the growth estimate is less than -0.25. As for LADKGGACSE, the figure is less than -0.25; as for RGPWEEGLRSHRQNVGKAKC, less than -0.25; as for RGSASRRCVQNLVYSAKGQN, less than -0.25. As for RHQTKRRTTKACHLQWTWG, the figure is less than -0.25; as for AGNQLTAFGEGALEIDMTCY, less than -0.25; as for RGNPG, less than -0.25. Then RFGSRPVKPASTHIRVAFRP, with less than -0.25; and DDTAGL, with less than -0.25. Turning to SRVYSIGSRRCRLLSDPGAQ, the growth estimate was less than -0.25. As for EDLLVG, the figure is -0.243; as for FPGR, less than -0.25; as for VRGG, less than -0.25.

For NLATRAWEPSRGVRQHRFYY, the growth estimate was less than -0.25. Then LHPAV, with less than -0.25; and GVKVKALASNSSQSGDGGAF, with less than -0.25; and KIWARSRIIGYELALGRANS, with less than -0.25. Then ALGENPEAY, with less than -0.25. As for SYAQGCGDRRRFHNTRSLGG, the figure is less than -0.25; as for SRGGYA, less than -0.25; as for VSDRSDGSLNFFRGV, less than -0.25. As for LHGKKGYLSIPLSHLHLYSV, the growth estimate is less than -0.25. As for RVSMQN, the figure is less than -0.25; as for CSRDAH, less than -0.25; as for EFLL, less than -0.25. As for IKR, the figure is less than -0.25; as for WKYVYEPCGPRRLGRGAFCR, less than -0.25. Take NPGEELEYAN: the growth estimate was less than -0.25.

RSAPAISSQSLRLGGEVFRF: the growth estimate was less than -0.25. For the substance RTARYGRRG, the growth estimate was less than -0.25. As for PCPTPC, the figure is less than -0.25; as for ATLRLKMWGKTIRASGTT, less than -0.25; as for LSDADPCWLGQ, less than -0.25. On to GVSFCCARRVAQ, for which the growth estimate is less than -0.25. Regarding VFVFT, the growth estimate is less than -0.25. Then GRTENKEMIRSCVITAAQFE, with less than -0.25; and GFRKNGLEQYVIALWLARGL, with less than -0.25.

Regarding QCTRHSDRIANG, the growth estimate was less than -0.25.

As for SNSHLSITVLDHLNVKDGVC, the growth estimate was less than -0.25. As for RLLNAFPAKRIWDRR, the figure is less than -0.25. For the substance RVLPLFIEVSERWIIASAIQ, the growth estimate was less than -0.25. As for PTEFVYCARIYGRRCPKSRL, the figure is -0.25; as for ALPDVKRRLLTLRVRCGPLS, less than -0.25; as for CVVTKQKYDSYTSQSNW, less than -0.25. As for CSRSGGWMSGTFAPWGKSVG, the figure is less than -0.25; as for NQDLS, less than -0.25. Then KYPLSGSFCCTGPVLPGRPV, with less than -0.25; and RETGAIERWGLIGGGE, with less than -0.25.

Turning to STSSAMPVSRSIEKQSGRWP, the growth estimate is less than -0.25. As to RQGNILSFANVTSSK, the growth estimate was less than -0.25. As for RRWGAPRQV, the figure is less than -0.25. As for RVYCSTSRPSTGLRRSYVSA, the figure is less than -0.25; as for GMII, less than -0.25; as for FGPIR, less than -0.25.

Consider RVYR, for which the growth estimate is less than -0.25. As for STDIESVATVRLSGQAVHSG, the figure is less than -0.25.

As for SDLGA, the growth estimate was less than -0.25.

Consider MLYGWVRHPYRRWLRLQRRL, for which the growth estimate is less than -0.25.

Source of the values: the supplement of paper PMC5949888.
